Results as given in patent US20210238289A1.
Where a chain is given by its changes, count along the chain named. No constants are given. Whether binding was seen depends on the method and setting. Some results given as binding are weak or reduced against the parent protein; the word gives no strength.

The chains behind the UniProt entries cited, without tags or fusion partners. Where a name states a change or a piece, a line headed by the entry shows the natural chain unless it says otherwise.
UniProt P13612: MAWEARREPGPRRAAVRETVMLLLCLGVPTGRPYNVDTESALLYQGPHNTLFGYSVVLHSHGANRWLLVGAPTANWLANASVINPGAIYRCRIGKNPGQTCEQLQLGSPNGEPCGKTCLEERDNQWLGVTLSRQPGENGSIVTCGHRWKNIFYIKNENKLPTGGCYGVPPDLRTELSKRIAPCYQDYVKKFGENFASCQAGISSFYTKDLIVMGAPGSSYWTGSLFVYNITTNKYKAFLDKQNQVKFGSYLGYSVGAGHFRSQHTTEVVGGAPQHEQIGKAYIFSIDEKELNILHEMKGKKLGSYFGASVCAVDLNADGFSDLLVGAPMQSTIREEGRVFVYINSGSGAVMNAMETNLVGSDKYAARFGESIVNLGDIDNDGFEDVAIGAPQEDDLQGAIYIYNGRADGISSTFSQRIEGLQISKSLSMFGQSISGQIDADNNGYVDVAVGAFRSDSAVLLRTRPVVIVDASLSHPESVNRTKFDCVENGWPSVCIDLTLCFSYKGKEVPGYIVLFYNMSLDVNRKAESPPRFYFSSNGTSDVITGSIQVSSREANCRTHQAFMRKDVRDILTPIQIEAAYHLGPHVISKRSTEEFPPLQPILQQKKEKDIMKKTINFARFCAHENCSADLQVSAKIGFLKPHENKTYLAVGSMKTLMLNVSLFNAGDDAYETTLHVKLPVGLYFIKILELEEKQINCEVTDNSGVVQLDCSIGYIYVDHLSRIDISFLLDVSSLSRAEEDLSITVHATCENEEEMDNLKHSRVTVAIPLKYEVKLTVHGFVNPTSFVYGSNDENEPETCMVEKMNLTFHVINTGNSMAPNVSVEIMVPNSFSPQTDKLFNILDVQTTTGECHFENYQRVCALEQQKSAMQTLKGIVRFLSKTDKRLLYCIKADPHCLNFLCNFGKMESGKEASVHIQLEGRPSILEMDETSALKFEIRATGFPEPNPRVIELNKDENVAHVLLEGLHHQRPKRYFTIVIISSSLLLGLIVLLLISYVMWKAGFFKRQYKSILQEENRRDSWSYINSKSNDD

Molecular target: α4β1 (VLA-4) as used in the competition ELISAs (UniProt P13612)
Test: competition ELISA (Table 2)

B1: H1L2 (antibody, V domains shown)
VH: EVQLVQSGAEVKKPGATVKISCKASGFNIKDTYMHWVQQAPGKGLEWMGRIDPASGDTKYDPKFQVRVTITADTSTDTAYMELSSLRSEDTAVYYCADGMWVSTGYALDFWGQGTLVTVSS
VL: SIVMTQSPDSLAVSLGERATINCKASQSVTNDVAWYQQKPGQPPKLLIYYASNRYTGVPDRFSGSGYGTDFTLTISSLQAEDVAVYFCQQDYSSPYTFGQGTKVEIK
Question: With B1 as the binder, how does the binding read?
Answer: binds

B2: H1L3 (antibody, V domains shown)
VH: B1 VH
VL: B1 VL with L73F, V85T
Question: Which binding does the source give for B2 here?
Answer: binds
